This is one part of the list.
Legend:
Assay in all cases: log2 fold change, soluble protein after heating vs DMSO (PISA); higher = thermal stabilisation; K562 lysate, 10 uM; active = over 0.2 and 3.5 SD of the protein, either way, in both replicates (recomputed)
lapatinib = compound: CS(=O)(=O)CCNCc1ccc(-c2ccc3ncnc(Nc4ccc(OCc5cccc(F)c5)c(Cl)c4)c3c2)o1 [lapatinib]
Outline: (§1)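 K562 pellets were dounce-homogenised in PBS pH 7.4 with 1 mM MgCl2, and the crude extract at 1 mg/mL protein was treated with 10 μM compound for 30 min. Aliquots were heated for 3 min across 48°C-58°C, pooled, and brought to 0.5% NP-40 at 4°C; soluble protein was the supernatant after 21,000xg for 90 min. Soluble protein was quantified by TMTpro 16plex LC-MS/MS with channel sums equalised, and reported as log2 fold change in thermal stability against DMSO controls, with values from duplicates.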

By UniProt entry, the sequences of proteins in these tests, tags left out. Where a name states a change or a piece, a line headed by the entry shows the natural chain unless it says otherwise.
UniProt Q8WVI0: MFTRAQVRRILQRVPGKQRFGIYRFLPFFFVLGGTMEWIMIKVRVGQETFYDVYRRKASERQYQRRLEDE
UniProt Q86T20: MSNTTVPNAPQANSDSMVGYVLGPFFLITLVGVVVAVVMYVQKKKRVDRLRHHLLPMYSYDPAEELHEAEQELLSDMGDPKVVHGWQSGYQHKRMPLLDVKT
UniProt Q9NWM0: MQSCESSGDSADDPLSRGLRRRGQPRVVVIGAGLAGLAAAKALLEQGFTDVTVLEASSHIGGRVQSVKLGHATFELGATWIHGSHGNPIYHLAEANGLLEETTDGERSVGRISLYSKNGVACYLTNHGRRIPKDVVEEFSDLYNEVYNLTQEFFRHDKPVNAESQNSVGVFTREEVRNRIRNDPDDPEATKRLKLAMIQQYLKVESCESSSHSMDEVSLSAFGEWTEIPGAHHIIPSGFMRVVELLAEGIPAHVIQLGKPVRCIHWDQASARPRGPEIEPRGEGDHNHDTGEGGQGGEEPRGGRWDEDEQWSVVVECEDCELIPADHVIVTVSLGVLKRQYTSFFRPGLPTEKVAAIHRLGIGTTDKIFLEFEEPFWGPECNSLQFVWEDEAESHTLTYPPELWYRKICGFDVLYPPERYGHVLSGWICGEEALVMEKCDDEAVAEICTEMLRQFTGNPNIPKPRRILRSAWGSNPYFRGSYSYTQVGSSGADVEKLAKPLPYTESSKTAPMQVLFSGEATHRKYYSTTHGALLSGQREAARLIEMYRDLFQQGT
UniProt Q8N5G0: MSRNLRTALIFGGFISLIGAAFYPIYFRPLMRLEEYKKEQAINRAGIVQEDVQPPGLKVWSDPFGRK
UniProt P58511: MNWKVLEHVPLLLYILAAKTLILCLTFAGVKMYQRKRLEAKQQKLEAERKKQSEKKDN
UniProt Q9NS25: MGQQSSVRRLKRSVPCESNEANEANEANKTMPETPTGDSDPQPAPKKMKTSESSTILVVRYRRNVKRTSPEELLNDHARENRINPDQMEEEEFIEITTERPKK
UniProt P0DJ93: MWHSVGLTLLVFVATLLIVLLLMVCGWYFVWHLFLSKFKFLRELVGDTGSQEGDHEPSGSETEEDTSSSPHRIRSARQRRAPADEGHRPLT
UniProt Q8TEQ0: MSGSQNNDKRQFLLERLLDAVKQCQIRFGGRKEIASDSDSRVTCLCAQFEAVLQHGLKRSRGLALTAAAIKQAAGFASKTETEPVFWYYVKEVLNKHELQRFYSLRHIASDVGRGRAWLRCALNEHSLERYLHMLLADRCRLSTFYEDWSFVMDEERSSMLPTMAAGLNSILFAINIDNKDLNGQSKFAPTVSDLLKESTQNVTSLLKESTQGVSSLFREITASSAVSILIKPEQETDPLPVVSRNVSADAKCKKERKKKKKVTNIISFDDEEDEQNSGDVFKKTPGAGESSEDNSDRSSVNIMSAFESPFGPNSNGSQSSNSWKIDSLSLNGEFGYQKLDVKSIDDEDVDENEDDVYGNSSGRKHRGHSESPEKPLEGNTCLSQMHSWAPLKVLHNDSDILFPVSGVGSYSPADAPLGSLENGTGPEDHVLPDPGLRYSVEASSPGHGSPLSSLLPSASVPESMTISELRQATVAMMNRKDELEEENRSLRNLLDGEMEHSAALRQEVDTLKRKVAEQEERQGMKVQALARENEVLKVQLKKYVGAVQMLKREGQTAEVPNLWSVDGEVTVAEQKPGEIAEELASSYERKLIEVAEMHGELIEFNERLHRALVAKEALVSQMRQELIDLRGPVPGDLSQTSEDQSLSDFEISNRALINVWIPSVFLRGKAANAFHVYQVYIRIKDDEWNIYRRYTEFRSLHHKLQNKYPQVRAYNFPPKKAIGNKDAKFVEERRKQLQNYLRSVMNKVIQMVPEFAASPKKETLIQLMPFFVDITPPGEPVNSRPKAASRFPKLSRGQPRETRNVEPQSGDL
UniProt O94964: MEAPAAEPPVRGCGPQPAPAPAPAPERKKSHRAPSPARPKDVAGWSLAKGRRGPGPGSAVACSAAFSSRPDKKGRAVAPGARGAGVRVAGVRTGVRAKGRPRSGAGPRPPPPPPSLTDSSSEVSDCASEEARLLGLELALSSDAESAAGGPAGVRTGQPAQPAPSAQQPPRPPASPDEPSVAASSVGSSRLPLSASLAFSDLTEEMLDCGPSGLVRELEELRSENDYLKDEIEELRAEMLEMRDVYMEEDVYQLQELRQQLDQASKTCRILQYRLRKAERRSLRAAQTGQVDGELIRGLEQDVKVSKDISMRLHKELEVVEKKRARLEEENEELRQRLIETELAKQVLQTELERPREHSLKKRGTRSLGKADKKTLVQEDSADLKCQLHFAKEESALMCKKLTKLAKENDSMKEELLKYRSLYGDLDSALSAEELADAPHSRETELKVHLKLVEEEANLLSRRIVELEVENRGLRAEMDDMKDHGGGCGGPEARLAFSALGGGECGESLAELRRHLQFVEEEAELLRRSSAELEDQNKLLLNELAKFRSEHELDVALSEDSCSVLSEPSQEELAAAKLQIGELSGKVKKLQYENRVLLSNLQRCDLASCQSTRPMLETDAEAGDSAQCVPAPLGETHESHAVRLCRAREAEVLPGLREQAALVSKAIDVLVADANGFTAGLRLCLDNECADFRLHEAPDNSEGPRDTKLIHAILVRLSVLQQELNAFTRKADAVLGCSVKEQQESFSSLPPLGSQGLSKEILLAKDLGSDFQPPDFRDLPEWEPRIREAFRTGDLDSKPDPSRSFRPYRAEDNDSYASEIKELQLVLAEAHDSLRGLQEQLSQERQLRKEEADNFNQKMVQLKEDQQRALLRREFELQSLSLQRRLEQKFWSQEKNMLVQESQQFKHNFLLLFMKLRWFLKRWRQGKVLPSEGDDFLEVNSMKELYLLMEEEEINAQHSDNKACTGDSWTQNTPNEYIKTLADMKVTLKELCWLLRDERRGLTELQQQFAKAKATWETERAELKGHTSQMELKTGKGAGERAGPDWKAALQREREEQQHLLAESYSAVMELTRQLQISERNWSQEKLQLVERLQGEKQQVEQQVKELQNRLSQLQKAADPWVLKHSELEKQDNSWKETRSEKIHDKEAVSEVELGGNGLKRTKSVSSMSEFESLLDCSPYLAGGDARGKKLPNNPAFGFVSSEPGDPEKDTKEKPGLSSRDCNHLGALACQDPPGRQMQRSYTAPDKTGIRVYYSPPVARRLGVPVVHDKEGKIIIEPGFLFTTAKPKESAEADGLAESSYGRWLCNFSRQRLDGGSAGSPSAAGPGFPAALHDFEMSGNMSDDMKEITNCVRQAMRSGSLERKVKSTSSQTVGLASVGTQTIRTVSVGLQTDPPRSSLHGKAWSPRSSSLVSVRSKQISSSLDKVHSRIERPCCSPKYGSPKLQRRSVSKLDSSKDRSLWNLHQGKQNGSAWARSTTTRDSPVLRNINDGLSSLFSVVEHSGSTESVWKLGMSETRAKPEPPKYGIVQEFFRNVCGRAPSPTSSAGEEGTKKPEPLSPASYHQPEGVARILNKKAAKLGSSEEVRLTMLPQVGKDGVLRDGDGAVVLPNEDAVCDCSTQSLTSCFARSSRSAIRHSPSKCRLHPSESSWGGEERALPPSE
UniProt Q6X4U4: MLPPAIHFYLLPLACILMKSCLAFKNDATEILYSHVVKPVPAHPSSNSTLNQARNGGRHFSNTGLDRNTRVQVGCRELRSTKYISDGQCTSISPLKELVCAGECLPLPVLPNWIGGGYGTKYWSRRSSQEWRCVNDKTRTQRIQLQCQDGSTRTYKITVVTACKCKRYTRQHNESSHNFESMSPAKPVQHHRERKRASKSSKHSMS
UniProt P0DMW3: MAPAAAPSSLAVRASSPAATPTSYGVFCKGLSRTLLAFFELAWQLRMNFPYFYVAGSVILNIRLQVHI
UniProt Q16560: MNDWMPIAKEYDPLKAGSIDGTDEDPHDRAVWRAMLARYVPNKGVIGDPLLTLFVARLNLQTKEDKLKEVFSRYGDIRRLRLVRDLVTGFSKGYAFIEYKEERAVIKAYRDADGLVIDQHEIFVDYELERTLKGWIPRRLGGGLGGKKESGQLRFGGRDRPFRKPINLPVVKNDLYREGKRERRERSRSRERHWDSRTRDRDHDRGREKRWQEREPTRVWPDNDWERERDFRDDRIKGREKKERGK
UniProt Q13487, whole entry, looked up: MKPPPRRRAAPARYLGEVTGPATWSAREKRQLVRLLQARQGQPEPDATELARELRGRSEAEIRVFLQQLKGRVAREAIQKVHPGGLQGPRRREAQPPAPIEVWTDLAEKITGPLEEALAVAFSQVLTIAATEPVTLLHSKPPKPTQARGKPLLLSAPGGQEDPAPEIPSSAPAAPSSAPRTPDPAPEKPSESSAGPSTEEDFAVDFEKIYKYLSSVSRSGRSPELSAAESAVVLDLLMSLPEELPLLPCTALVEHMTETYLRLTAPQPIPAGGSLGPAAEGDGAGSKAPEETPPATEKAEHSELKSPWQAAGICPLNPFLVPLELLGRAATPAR
UniProt O60271: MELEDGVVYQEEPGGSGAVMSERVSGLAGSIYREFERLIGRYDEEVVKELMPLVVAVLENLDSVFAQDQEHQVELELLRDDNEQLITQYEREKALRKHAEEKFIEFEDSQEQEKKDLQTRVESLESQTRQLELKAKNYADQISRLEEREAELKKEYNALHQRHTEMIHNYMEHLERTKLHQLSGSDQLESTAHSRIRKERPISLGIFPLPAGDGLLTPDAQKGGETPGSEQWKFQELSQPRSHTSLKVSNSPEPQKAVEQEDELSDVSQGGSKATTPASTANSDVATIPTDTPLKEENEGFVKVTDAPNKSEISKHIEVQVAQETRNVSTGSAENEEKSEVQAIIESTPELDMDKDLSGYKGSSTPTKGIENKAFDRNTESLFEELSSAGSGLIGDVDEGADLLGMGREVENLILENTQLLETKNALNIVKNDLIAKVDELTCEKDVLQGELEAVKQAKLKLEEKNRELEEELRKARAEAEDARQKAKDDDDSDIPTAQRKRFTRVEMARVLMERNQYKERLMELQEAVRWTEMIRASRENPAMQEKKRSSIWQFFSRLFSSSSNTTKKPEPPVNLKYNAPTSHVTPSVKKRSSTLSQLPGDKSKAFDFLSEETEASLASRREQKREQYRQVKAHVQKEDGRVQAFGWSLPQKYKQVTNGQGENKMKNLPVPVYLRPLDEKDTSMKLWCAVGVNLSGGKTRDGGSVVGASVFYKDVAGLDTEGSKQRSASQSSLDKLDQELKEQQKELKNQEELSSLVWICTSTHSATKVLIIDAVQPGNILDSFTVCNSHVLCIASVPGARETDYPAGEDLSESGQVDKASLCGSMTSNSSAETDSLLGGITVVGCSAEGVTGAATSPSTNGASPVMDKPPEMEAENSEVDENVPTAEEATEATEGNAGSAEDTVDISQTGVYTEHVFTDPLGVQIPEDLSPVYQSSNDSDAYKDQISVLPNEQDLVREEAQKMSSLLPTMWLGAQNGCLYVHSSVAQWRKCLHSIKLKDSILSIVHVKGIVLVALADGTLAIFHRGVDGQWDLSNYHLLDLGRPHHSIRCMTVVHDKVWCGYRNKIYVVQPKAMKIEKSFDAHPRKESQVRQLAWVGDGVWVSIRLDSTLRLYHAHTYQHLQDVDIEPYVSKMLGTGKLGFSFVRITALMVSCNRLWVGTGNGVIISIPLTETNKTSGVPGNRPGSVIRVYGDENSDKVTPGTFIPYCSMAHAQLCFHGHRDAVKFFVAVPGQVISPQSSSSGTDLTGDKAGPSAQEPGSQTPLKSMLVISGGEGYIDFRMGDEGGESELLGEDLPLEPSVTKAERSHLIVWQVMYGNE
UniProt Q8IYR2: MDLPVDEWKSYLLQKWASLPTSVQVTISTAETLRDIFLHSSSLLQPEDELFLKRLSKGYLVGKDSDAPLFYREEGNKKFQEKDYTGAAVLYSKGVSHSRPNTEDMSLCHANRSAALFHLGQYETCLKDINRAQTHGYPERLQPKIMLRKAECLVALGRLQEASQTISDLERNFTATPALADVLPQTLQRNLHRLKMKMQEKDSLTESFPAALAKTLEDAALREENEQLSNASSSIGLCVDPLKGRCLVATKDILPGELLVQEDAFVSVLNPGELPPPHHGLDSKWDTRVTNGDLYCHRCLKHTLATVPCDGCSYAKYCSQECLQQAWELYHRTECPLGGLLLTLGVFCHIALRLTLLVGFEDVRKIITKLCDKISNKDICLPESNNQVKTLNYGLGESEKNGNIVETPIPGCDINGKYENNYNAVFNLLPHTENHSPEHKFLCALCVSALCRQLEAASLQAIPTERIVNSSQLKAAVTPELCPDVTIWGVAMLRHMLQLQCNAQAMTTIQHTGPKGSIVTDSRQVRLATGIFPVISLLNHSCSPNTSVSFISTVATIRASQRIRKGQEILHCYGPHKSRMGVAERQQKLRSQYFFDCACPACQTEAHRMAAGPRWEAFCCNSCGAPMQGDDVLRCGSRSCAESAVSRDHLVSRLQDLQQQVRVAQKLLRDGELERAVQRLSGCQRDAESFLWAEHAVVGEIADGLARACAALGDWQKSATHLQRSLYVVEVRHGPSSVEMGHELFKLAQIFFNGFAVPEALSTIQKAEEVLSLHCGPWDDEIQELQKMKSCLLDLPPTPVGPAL

pictilisib = compound: CS(=O)(=O)N1CCN(Cc2cc3nc(-c4cccc5[nH]ncc45)nc(N4CCOCC4)c3s2)CC1 [pictilisib]
Outline: as §1

crizotinib = compound: C[C@@H](Oc1cc(-c2cnn(C3CCNCC3)c2)cnc1N)c1c(Cl)ccc(F)c1Cl [crizotinib]
Outline: as §1

[1] = compound: C[C@H](C1=CC=C(C=C1)C(=O)NC2=C3C=CNC3=NC=C2)N
Outline: as §1

gandotinib = compound: Cc1cc(Nc2cc(CN3CCOCC3)c3nc(C)c(Cc4ccc(Cl)cc4F)n3n2)n[nH]1 [gandotinib]
Outline: as §1

doramapimod = compound: Cc1ccc(-n2nc(C(C)(C)C)cc2NC(=O)Nc2ccc(OCCN3CCOCC3)c3ccccc23)cc1 [doramapimod]
Outline: as §1

bafetinib = compound: Cc1ccc(NC(=O)c2ccc(CN3CC[C@H](N(C)C)C3)c(C(F)(F)F)c2)cc1Nc1nccc(-c2cncnc2)n1 [bafetinib]
Outline: as §1

[2] = compound: Cc1cccc(CC(=O)N2CCc3c2ccc(-c2cn(C)c4ncnc(N)c24)c3F)n1
Outline: as §1

nilotinib = compound: Cc1cn(-c2cc(NC(=O)c3ccc(C)c(Nc4nccc(-c5cccnc5)n4)c3)cc(C(F)(F)F)c2)cn1 [nilotinib]
Outline: as §1

[3] = compound: Cc1nc(Nc2n[nH]c3c2CN(C(=O)N[C@H](CN(C)C)c2ccccc2)C3(C)C)c2sccc2n1
Outline: as §1

[4] = compound: Cc1ncc(-c2ccnc(Nc3ccc(S(C)(=O)=O)cc3)n2)n1C(C)C
Outline: as §1

quisinostat = compound: Cn1cc(CNCC2CCN(c3ncc(C(=O)NO)cn3)CC2)c2ccccc21 [quisinostat]
Outline: as §1

tipifarnib = compound: Cn1cncc1[C@@](N)(c1ccc(Cl)cc1)c1ccc2c(c1)c(-c1cccc(Cl)c1)cc(=O)n2C [tipifarnib]
Outline: as §1

[5] = compound: NC(=O)Nc1cc(-c2cccc(F)c2)sc1C(=O)N[C@H]1CCCNC1
Outline: as §1

[6] = compound: NC(=O)c1cnc(N[C@@H]2CCCC[C@@H]2N)nc1Nc1cccc(-n2nccn2)c1
Outline: as §1

duvelisib = compound: C[C@H](Nc1ncnc2nc[nH]c12)c1cc2cccc(Cl)c2c(=O)n1-c1ccccc1 [duvelisib]
Outline: as §1

tozasertib = compound: Cc1cc(Nc2cc(N3CCN(C)CC3)nc(Sc3ccc(NC(=O)C4CC4)cc3)n2)n[nH]1 [tozasertib]
Outline: as §1

dasatinib = compound: Cc1nc(Nc2ncc(C(=O)Nc3c(C)cccc3Cl)s2)cc(N2CCN(CCO)CC2)n1 [dasatinib]
Outline: as §1

[7] = compound: Cn1cc(-c2ccc3c(c2)CCN3C(=O)Cc2cccc(C(F)(F)F)c2)c2c(N)ncnc21
Outline: as §1

[8] = compound: NC1(c2ccc(-c3nc4ccn5c(=O)[nH]nc5c4cc3-c3ccccc3)cc2)CCC1
Outline: as §1

Measured: log2 fold change

SMIM4 (UniProt Q8WVI0)
inactive: lapatinib 0.132 | pictilisib -0.016 | crizotinib 0.043 | [1] -0.17 | gandotinib -0.121 | doramapimod 0.096 | bafetinib 0.632 | [2] 0.278 | nilotinib 0.079 | [3] 0.089 | [4] -0.048 | quisinostat -0.039 | tipifarnib 0.063 | [5] -0.043 | [6] 0.175

SNX14 (UniProt Q9Y5W7)
inactive: lapatinib -0.046 | pictilisib -0.055 | crizotinib -0.197 | duvelisib -0.005 | tozasertib -0.006 | doramapimod -0.092 | bafetinib -0.005 | nilotinib -0.128 | [3] 0.012 | dasatinib 0.051 | [4] -0.195 | [7] -0.01 | quisinostat -0.539 | tipifarnib -0.07 | [5] 0.176 | [6] 0.009 | [8] -0.451

SMIM29 (UniProt Q86T20)
inactive: lapatinib -0.057 | [6] 0.011

SMOX isoform 6 (UniProt Q9NWM0)
inactive: lapatinib 0.22 | duvelisib -0.104 | dasatinib 0.1 | [7] -0.084 | [6] -0.058 | [8] 0.009

SMARCA4 isoform 4 (UniProt P51532)
inactive: lapatinib -0.072 | crizotinib 0 | [1] 0.024 | duvelisib -0.068 | gandotinib -0.007 | tozasertib 0.136 | doramapimod -0.048 | [2] -0.012 | nilotinib -0.244 | [3] -0.219 | dasatinib -0.037 | [4] 0.037 | [7] 0.035 | quisinostat -0.081 | tipifarnib 0.239 | [5] 0.16 | [6] -0.042 | [8] 0.05

SNUPN (UniProt O95149)
active: [8] -0.482
inactive: lapatinib 0.026 | pictilisib -0.083 | crizotinib -0.03 | [1] -0.009 | gandotinib -0.036 | tozasertib 0.023 | doramapimod -0.002 | bafetinib -0.061 | [2] 0.006 | nilotinib -0.007 | [3] -0.013 | [4] 0.005 | quisinostat 0.128 | tipifarnib -0.015 | [5] 0.042 | [6] -0.115

SNRPA1 (UniProt H0YMA0)
inactive: lapatinib -0.158 | [6] -0.109

SMIM20 isoform 2 (UniProt Q8N5G0)
inactive: lapatinib 0.033 | pictilisib -0.066 | crizotinib -0.062 | [1] 0.121 | duvelisib -0.075 | gandotinib -0.12 | doramapimod 0.018 | bafetinib 0.041 | [2] -0.037 | nilotinib 0.032 | [3] 0.035 | dasatinib 0.086 | [4] 0.052 | [7] -0.005 | quisinostat 0.089 | tipifarnib 0.067 | [5] 0.045 | [6] -0.036 | [8] -0.285

Random excerpt: two records from the list, in no set order.
SNRPA1 (UniProt H0YMA0)
inactive: lapatinib -0.158 | [6] -0.109

SMOX isoform 6 (UniProt Q9NWM0)
inactive: lapatinib 0.22 | duvelisib -0.104 | dasatinib 0.1 | [7] -0.084 | [6] -0.058 | [8] 0.009

Later entries:

SMIM11A (UniProt P58511)
inactive: lapatinib 0.049 | crizotinib -0.034 | tozasertib 0.104 | doramapimod -0.07 | quisinostat 0.262 | [5] -0.124 | [6] 0.07

SPANXB1 (UniProt Q9NS25)
inactive: [1] 0.098 | gandotinib -0.34 | [2] 0.336

SMIM13 (UniProt P0DJ93)
inactive: crizotinib 0.029 | doramapimod -0.035 | quisinostat 0.106 | [5] -0.002 | [8] 0.113

SNIP1 (UniProt Q8TAD8)
inactive: nilotinib -0.1 | [3] 0.037 | [4] -0.078 | tipifarnib -0.149

SNX29 (UniProt Q8TEQ0)
inactive: crizotinib -0.205 | [1] 0.206 | gandotinib -0.055 | tozasertib 0.088 | doramapimod 0.012 | [2] 0.131 | nilotinib -0.041 | [3] 0.056 | [4] 0.093 | quisinostat -0.142 | tipifarnib -0.11 | [5] 0.129 | [8] 0.042

SOGA1 isoform 2 (UniProt O94964)
inactive: pictilisib -0.051 | crizotinib -0.015 | [1] 0.038 | duvelisib -0.015 | gandotinib -0.209 | tozasertib 0.038 | doramapimod 0.027 | bafetinib -0.044 | [2] -0.054 | nilotinib -0.009 | [3] -0.001 | dasatinib -0.077 | [4] 0 | [7] 0.043 | quisinostat -0.091 | tipifarnib -0.056 | [5] -0.016 | [8] 0.042

SMC4 (UniProt C9JJ64)
inactive: pictilisib 0.006 | bafetinib -0.251

SMPD4 isoform 4 (UniProt Q9NXE4)
inactive: pictilisib -0.038 | [1] 0.067 | gandotinib -0.146 | tozasertib 0.057 | bafetinib -0.079 | [2] -0.062 | nilotinib 0.165 | [3] -0.308 | [4] -0.121 | tipifarnib -0.072

SOSTDC1 isoform 2 (UniProt Q6X4U4)
inactive: duvelisib -0.086 | dasatinib 0.172 | [7] -0.129

SMIM10L1 (UniProt P0DMW3)
inactive: [1] 0.143 | gandotinib -0.108 | [2] 0.106

SNRNP35 isoform 2 (UniProt Q16560)
inactive: [1] -0.068 | duvelisib 0.054 | gandotinib 0.065 | [2] 0.105 | nilotinib 0.147 | [3] -0.065 | dasatinib 0.057 | [4] 0.159 | [7] 0.161 | tipifarnib -0.064

SNAPC2 (UniProt Q13487)
inactive: pictilisib 0.08 | crizotinib -0.007 | [1] 0.024 | duvelisib -0.129 | gandotinib 0.01 | doramapimod 0.03 | bafetinib -0.537 | [2] -0.033 | nilotinib 0.066 | [3] 0 | dasatinib -0.24 | [4] -0.067 | [7] -0.122 | quisinostat -0.021 | tipifarnib -0.106 | [5] 0.029 | [8] 0

SPAG9 isoform 4 (UniProt O60271)
inactive: pictilisib 0.046 | crizotinib 0.109 | [1] -0.067 | gandotinib -0.008 | tozasertib -0.013 | doramapimod 0.011 | bafetinib 0.031 | [2] 0.033 | quisinostat 0.023 | [5] 0.054

SON isoform 6 (UniProt P18583)
inactive: nilotinib -0.091 | [3] -0.186 | [4] 0.154 | tipifarnib 0.06

SMYD4 (UniProt Q8IYR2)
inactive: crizotinib -0.116 | [1] -0.075 | duvelisib 0.026 | gandotinib 0.024 | doramapimod -0.121 | [2] 0.144 | dasatinib -0.472 | [7] -0.04 | quisinostat -0.271 | [5] 0.027 | [8] 0.211

Reference: the supplement of paper PMC10849652
